Data from paper PMC7287880, “Structural Basis for Broad Substrate Selectivity of Alcohol Dehydrogenase YjgB from Escherichia coli” (Molecules, 2020).
These are yes or no findings as the source states them, for the method shown. Some entries that bind do so weakly or less than the wild type.

Molecular target: Escherichia coli YjgB (EcYjgB) (Escherichia coli BL21 (DE3)) (UniProt P27250)
Assay: crystal structure; crystals of purified EcYjgB, apo (C2, 1.55 Å) and soaked with 5 mM NADP (C222(1), 2.00 Å, with a PEG fragment); the dimer was taken from the crystal by PDBePISA analysis; both purified

B1: Escherichia coli YjgB (EcYjgB) (enzyme, UniProt P27250 1-338)
chain: MSMIKSYAAKEAGGELEVYEYDPGELRPQDVEVQVDYCGICHSDLSMIDNEWGFSQYPLVAGHEVIGRVVALGSAAQDKGLQVGQRVGIGWTARSCGHCDACISGNQINCEQGAVPTIMNRGGFAEKLRADWQWVIPLPENIDIESAGPLLCGGITVFKPLLMHHITATSRVGVIGIGGLGHIAIKLLHAMGCEVTAFSSNPAKEQEVLAMGADKVVNSRDPQALKALAGQFDLIINTVNVSLDWQPYFEALTYGGNFHTVGAVLTPLSVPAFTLIAGDRSVSGSATGTPYELRKLMRFAARSKVAPTTELFPMSKINDAIQHVRDGKARYRVVLKAD
- binding: binds
